US20260184750A1, “CONJUGATE COMPRISING PEPTIDE OF NOVEL SEQUENCE AND GLYCYRRHIZIN, AND PHARMACEUTICAL COMPOSITION FOR PREVENTING OR TREATING OBESITY COMPRISING SAME” (IUCF-HYU (INDUSTRY-UNIVERSITY COOPERATION FOUNDATION …, priority 2022, published 2026)
No constants are given. Whether binding was seen depends on the method and setting. Some entries that bind do so weakly or less than the wild type. Values belong to the binder of their own block, whether it stands above or below them.

Key:
[1] = biological target: T1, prohibitin (PHB) on the surface of adipocytes (mature 3T3-L1) (UniProt P67778); assay: FACS of FITC-labeled peptide (1 µM) on mature 3T3-L1 adipocytes
T1 sequence (looked up): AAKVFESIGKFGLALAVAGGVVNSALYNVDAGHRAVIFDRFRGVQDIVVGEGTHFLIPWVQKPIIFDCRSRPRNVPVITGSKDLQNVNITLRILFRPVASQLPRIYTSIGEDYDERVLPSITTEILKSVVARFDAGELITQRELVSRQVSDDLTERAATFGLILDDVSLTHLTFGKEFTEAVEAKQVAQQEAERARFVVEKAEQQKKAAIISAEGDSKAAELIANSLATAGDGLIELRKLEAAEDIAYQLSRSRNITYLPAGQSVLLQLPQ

[2] = biological target: T1, prohibitin (PHB) on the surface of adipocytes (mature 3T3-L1); assay: FACS of FITC-labeled peptide (1 µM) on mature 3T3-L1 adipocytes, compared with ATS
[3] = biological target: T1, prohibitin (PHB) on the surface of adipocytes (mature 3T3-L1); assay: confocal fluorescence imaging of FITC-labeled peptide (1 µM) on mature 3T3-L1 adipocytes
[4] = biological target: T1, prohibitin (PHB) on the surface of adipocytes (mature 3T3-L1); assay: FACS of FITC-labeled peptide (1 µM) on mature 3T3-L1 adipocytes, compared with AHP

binding [1]: binds
binding [2]: binds
binding [3]: binds
B1: adipose tissue homing peptide (AHP), 7mer KGRRAKD, FITC-labeled (peptide)
peptide: KGRRAKD
modifications: FITC-labeled (position of the label not stated)

binding [4]: binds
B2: adipose targeting sequence (ATS), KGGRAKD, FITC-labeled (peptide)
peptide: KGGRAKD
modifications: FITC-labeled (position of the label not stated)
